According to patent US20260265396A1:
Results are given in words; binding and its absence hold for the method and conditions named. Some entries that bind do so weakly or less than the wild type.

Protein sequences, listed by entry. Tags and fused reporters are not part of them. Residues count along the entry.
UniProt P02787, residues 20-698: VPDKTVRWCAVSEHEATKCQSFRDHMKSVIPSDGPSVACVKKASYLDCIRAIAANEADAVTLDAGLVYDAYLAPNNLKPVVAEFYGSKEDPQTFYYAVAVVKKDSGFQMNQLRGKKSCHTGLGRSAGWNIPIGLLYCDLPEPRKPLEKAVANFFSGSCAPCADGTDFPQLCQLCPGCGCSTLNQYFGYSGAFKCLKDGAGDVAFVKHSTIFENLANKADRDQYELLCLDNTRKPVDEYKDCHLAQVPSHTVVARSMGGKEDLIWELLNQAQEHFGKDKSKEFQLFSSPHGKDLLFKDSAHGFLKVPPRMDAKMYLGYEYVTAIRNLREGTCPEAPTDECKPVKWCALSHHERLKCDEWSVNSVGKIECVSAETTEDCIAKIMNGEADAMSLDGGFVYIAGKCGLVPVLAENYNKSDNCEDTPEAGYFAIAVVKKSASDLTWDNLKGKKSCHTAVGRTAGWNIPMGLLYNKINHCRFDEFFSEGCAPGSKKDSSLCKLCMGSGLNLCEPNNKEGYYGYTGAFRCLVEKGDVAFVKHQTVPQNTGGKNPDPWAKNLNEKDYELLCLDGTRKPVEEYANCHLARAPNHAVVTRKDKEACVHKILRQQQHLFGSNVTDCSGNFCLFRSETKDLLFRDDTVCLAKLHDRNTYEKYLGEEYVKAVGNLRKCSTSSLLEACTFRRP

Target: cynomolgus TfR1, construct not stated (cynomolgus)
Experiment: BLI, capture of cTfR1 on transferrin-loaded sensors

human holo-transferrin (from UniProt P02787 20-698) (ligand)
binding: binds
